According to patent US20240148745A1, “COMPOUNDS FOR USE IN PROGRESSIVE MULTIPLE SCLEROSIS” (FONDAZIONE CENTRO SAN RAFFAELE, priority 2021, published 2024):
Where a name gives a salt, the structure may show the parent alone. At least one structure is not confirmed: it was looked up by name or label, or the drawing left a doubt. Some entries repeat one wording, which the source may state once for all of them. Some results were stated once for a whole list of compounds, not compound by compound.

System: murine cortical neurons (14 DIV)
Experiment: NMDA-mediated neuroprotective assay (CCK8 viability)
Format: cell-based, mouse
Settings: 1 μM, 24 h pre-treatment, NMDA 8 μM 24 h
Experimental: To assess neuroprotective activity of 160 selected non-toxic compounds on primary murine cortical neurons, obtained as described in the previous paragraph, ([…]), cultures were pre-treated with 1 μM compounds for either 3 or 24 hours, followed by 24 hours chronic stimulation with NMDA (8 μM) to induce neuronal damage. Each test plate included: a negative control (untreated), vehicle-treated control (0.02% vol/vol DMSO), a positive neurotoxic control—staurosporine 0.1 μM, a stressor—NMDA 8 μM, a positive neuroprotective control—NAC 300 μM, and a combination of stressor +neuroprotective molecule (NMDA+NAC). Cell viability was measured with Cell Counting Kit-8 assay compared to NMDA-treated control.
The potential neuroprotective activity of 160 selected non-toxic compounds was evaluated on murine cortical neurons (14 DIV) with either 3 h (FIG. 13) or 24 h compounds pre-treatment (FIG. 14). In assay with 3 h pre-treatment, 17 compounds were identified as potential NMDA-neuroprotective hits (marked with black asterisk in FIG. 13, stat. significant at p<0.05, Kruskal-Wallis test with post-hoc two-stage linear step-up procedure of Benjamini, Krieger and Yekutieli multiple comparison correction).

| Compound | neuroprotective capacity against NMDA-induced excitotoxicity, Z score |
| --- | --- |
| N[C@@H](CO)C(=O)O [L-Serine] | > 0.5 |
| Oc1ccc([C@H]2COc3cc(O)ccc3C2)cc1 [Equol] | > 0.5 |
| CN(C(=O)c1ccc(F)cc1C(F)(F)F)C1CCN(c2nnc(-c3ccnn3C)c3ccccc23)CC1 [Taladegib] | > 0.5 |
| O=C(N[C@H]1CN2CCC1CC2)c1cc2cccc(Cl)c2s1 [Encenicline] | > 0.5 |
| CC1(C)CCC(C)(C)c2cc(NC(=O)c3ccc(C(=O)O)cc3)ccc21 [Tamibarotene] | > 0.5 |
| Cc1cc(C)c(N)c(C#Cc2cccc(F)c2)n1 [Raseglurant] | > 0.5 |
| C[C@@H]1CN(Cc2ccc(F)cc2)[C@@H](C)CN1C(=O)c1cc2c(C(=O)C(=O)N(C)C)cn(C)c2cc1Cl [Talmapimod] | > 0.5 |
| Cc1ccc(-n2nc(C(C)(C)C)cc2NC(=O)Nc2ccc(OCCN3CCOCC3)c3ccccc23)cc1 [Doramapimod] | > 0.5 |
| C=CCc1ccccc1OCC(O)CNC(C)C (stereo not drawn) [Alprenolol] | > 0.5 |
| Clc1ccc(Nc2nnc(Cc3ccncc3)c3ccccc23)cc1 [Vatalanib] | > 0.5 |
| CN1[C@@H]2CC[C@H]1C[C@@H](OC(c1ccccc1)c1ccccc1)C2 [Benztropine Mesylate] | > 0.5 |
| C[C@H](Cn1cnc2c(N)ncnc21)OCP(=O)(O)O [Tenofovir] | > 0.5 |
| N[C@@H](Cc1ccccc1)C(=O)O [L-Phenylalanine] | > 0.5 |
| CC(C)(C)S(=O)(=O)N[C@H]1CC[C@H](C(=O)Nc2ccc(C(F)(F)F)cn2)CC1 [Velneperit] | > 0.5 |
| O=C(Oc1ccc(Br)cc1)N1CCN2CCC1CC2 [SSR180711] | > 0.5 |
| CCNC(=O)C1CC(F)(c2ccc(CN3CCCC3)c(F)c2)C1 (stereo not drawn) [PF-03654746] | > 0.5 |
| C=Cc1cc(O)cc2nc(-c3ccc(O)c(F)c3)oc12 [Prinaberel] | > 0.5 |
| Nc1ncnc2nc[nH]c12 [Adenine] | > 0.5 |
| O=C(c1ccc(CN2CCOCC2)cc1)N1CCN(C2CC2)CC1 [Bavisant] | > 0.5 |
| CCn1c(=O)c2c(nc(/C=C/c3ccc(OC)c(OC)c3)n2C)n(CC)c1=O [Istradefylline] | > 0.5 |
| O=c1oc2c(O)c(O)cc3c(=O)oc4c(O)c(O)cc1c4c23 [Ellagic Acid] | > 0.5 |
| CNc1cc2[nH]c(=O)n(-c3ccc(NC(=O)NS(=O)(=O)c4ccc(Cl)s4)cc3)c(=O)c2cc1F [Elinogrel] | > 0.5 |
| O=C(O)C[C@H]1CCc2c1[nH]c1ccc(OCc3ccc(C4CCCC4)c(C(F)(F)F)c3)cc21 [APD334] | > 0.5 |
| CC(C)(C)NC(=O)c1ccc(Oc2cc(F)c(CC(=O)O)cc2Cl)c(NS(=O)(=O)c2ccc(C3CC3)cc2Cl)c1 [Vidupiprant] | > 0.5 |
| O=C1NC(=O)C(Cc2ccc3cc(OCc4ccccc4F)ccc3c2)S1 (stereo not drawn) [Netoglitazone] | > 0.5 |
| CCc1cccc2c3c([nH]c12)[C@@](CC)(CC(=O)O)OCC3 [SDX-101] | > 0.5 |
| COc1ccc(Cl)cc1[C@]1(F)C(=O)Nc2cc(C(F)(F)F)ccc21 [Flindokalner] | > 0.5 |

System: rat primary OPC cultures
Experiment: Differentiation of rat primary OPC into MBP+ OLs
Format: cell-based
Settings: 1 μM, 4 days of differentiation
Experimental: Secondary validation on primary rat OPC differentiation. Re-validation of the best performing compounds promoting OPC differentiation (fold change >1.5) was performed on primary rat OPC cultures in 96 well-plate run in triplicates by triple immunolabeling for CNPase, MBP and SOX10 as a readout. Compounds at […] were added for 4 days of differentiation and then cell cultures were imaged with ArrayScanXTI platform, number of MBP+OLs were quantified by semi-automated software. Basal medium served as a negative control, 9 cis-RA ([…]) was a positive control.
Re-validation of the 49 compounds selected from the short list (160 compounds) using rat primary OPC cultures (compounds tested in triplicates in 3 independent experiments. The secondary validation screen of these compounds performed on rat primary OPC cultures selected 17 best lead compounds with a pro-differentiation activity (MBP+/SOX10+OLs plus compounds/MBP+SOX10+ plus basal medium fold increase) induced a strong differentiation into MBP+OLs (fold increase >1.6). Results are shown in FIG. 7.

| Compound | MBP+ differentiation (MBP+/SOX10+ OLs plus compounds / plus basal medium) |
| --- | --- |
| CCCc1nc(C(F)(F)F)ccc1/C=C/C(=O)N[C@H](C)c1cc(F)c(NS(C)(=O)=O)c(F)c1 [PAC-14028] | > 1.6 fold change |
| CC1(C)CC(C)(C)CC(C)(N)C1 [Neramexane] | > 1.6 fold change |
| COCCOc1cnc2ccn([C@H](C)c3nnc4c(F)cc(-c5cnn(C)c5)cn34)c(=O)c2c1 [AMG-337] | > 1.6 fold change |

System: human fetal neural precursors (hufNPCs) derived OPCs
Experiment: Human fetal neural precursors (hufNPCs)-derived OPCs differentiation
Format: cell-based
Settings: 1 μM, 7 days; >1.5 with p<0.05, >1.3 with 0.05<p<0.07

| Compound | fold change of OL differentiation (% GalC+ OLs forming sheets vs CC1+ cells, compound/DMSO) |
| --- | --- |
| Cc1ccc(C(=O)Nc2ccc(Oc3cc4cnn(C)c4cc3-c3cn[nH]c3)c(F)c2)c(=O)n1-c1ccc(F)cc1 [Merestinib] | > 1.5 fold change |
| CNC(=O)c1cc(COc2nnc(Nc3ccc(Cl)cc3)c3ccoc23)ccn1 [Telatinib] | > 1.3 fold change |
| O=C(c1ccc(CN2CCOCC2)cc1)N1CCN(C2CC2)CC1 [Bavisant] | > 1.3 fold change |
| CS(=O)(=O)N(c1cc(F)cc(F)c1)C1CN(C(c2ccc(Cl)cc2)c2ccc(Cl)cc2)C1 [Drinabant] | > 1.3 fold change |
| COc1ccc(S(=O)(=O)n2cc(CCC(=O)O)c3cc(OC)ccc32)cc1 [Indeglitazar] | > 1.5 fold change |
| Cc1cc(Oc2ccc3nc(COc4ccc(CC5SC(=O)NC5=O)cc4)n(C)c3c2)cc(C)c1N (stereo not drawn) [Efatutazone hydrochloride, Efatutazone Hydrochloride] | > 1.5 fold change |

System: rat oligodendrocyte progenitor CG4 line
Experiment: Differentiation assay on rat oligodendrocyte progenitor CG4 line (HCS, mCherry+)
Format: cell-based
Settings: secondary screen of 49 selected compounds, 1 μM, 5 days
From the text: Primary validation on CG4 line toxicity and differentiation. An innovative OPC line was developed for fast and reliable high content screening (HCS) of small compounds inducing oligodendrocyte differentiation. The line was genetically engineered by lentiviral transduction of rat CG4 cells (PubMed=1613821; DOI=10.1002/jnr.490310125; Louis J. C., Magal E., Muir D., Manthorpe M., Varon S.; CG-4, a new bipotential glial cell line from rat brain, is capable of differentiating in vitro into either mature oligodendrocytes or type-2 astrocytes. J. Neurosci. Res. 31:193-204(1992) to express mCherry fluorescent reporter (Evercooren, Anne & Avellana-Adalid, V. & Vitry, Sandrine & Nait-Oumesmar, Brahim & Lachapelle, Francois. (1997). Expansion of Oligodendrocyte Progenitors for Myelin Repair. 10.1007/978-1-4615-5949-8_21) in mature oligodendrocytes only, and EGFP at all stage of the oligodendroglial lineage: both the generation of mature oligodendrocytes (wmNl-mCherry) and the morphological changes associated with differentiation (CMV-EGFP) can be therefore monitored in a single assay. mCherry expression occurred only in O4+/GalC+ differentiated oligodendrocytes and GFP was ubiquitously expressed at all developmental stages. The line so obtained was validated using compounds with well-established effects on oligodendrocyte differentiation (cAMP and T3). Cell-based assay was standardized on the HCS platform (ArrayScanXTI, Brain and Spine Institute (Paris), validating the pro-differentiation effects of clemastine^27 and 9cis-retinoic acid.^28 For HCS validation of 274 compounds identified through in silico screen, double-fluo CG4 line cells were plated in 96 well-plates, 6500 cells/cm^2 and left for 24 h in proliferation. The other day, compounds were added (1 μM) for next 5 days of differentiation, with ⅔ medium changed after 3 days. 9-cis Retinoic Acid (9cis-RA; […]) served as a positive control, negative controls were basal (N1) medium and vehicle (basal+0.1% DMSO). Each compound was tested in triplicate and were imaged with ArrayScanXTI system (35 fields/well) after 5 days of differentiation.
FIG. 4 provides a schematic representation of High Content Screening (HCS) validation of the 274 compounds identified through in silico screening using CG4 line. […] In addition, the whole short list of 160 non-toxic compounds were screened using the CG4 high content phenotypic assay to further confirm the data from primary screening and to potentially select additional compounds with pro-myelinating activities. From this screening of the short list, 49 hit compounds were identified that increase differentiation either of CG4 cells or primary OPCs (FIG. 6).

| Compound | CG4 differentiation compared with 9cis-RA positive control |
| --- | --- |
| [H]/N=C(/N)c1ccc(NCc2nc3cc(C(=O)N(CCC(=O)O)c4ccccn4)ccc3n2C)cc1 [DABIGATRAN] | promoting differentiation significantly higher than 9cis-RA positive control |
| CN1CCN(c2ccc3nc(-c4c(N)c5c(F)cccc5[nH]c4=O)[nH]c3c2)CC1 [Dovitinib] | promoting differentiation significantly higher than 9cis-RA positive control |
| COCCNCc1ccc(-c2cc3nccc(Oc4ccc(NC(=S)NC(=O)Cc5ccc(F)cc5)cc4F)c3s2)nc1 [MGCD-265] | promoting differentiation significantly higher than 9cis-RA positive control |
